PubChem BioAssay AID504808, Drosophila RNAi Screening Center – 2011
The deposit covers about 21,000 reagents; below is an unselected part of those that have a named target and a result. Over the whole deposit, 18 (0.084%) are marked active. 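Raw counts without plate normalisation, one of two replicates; the ratio scores behind the calls were not deposited.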 Reagents against one gene are numbered here. No sequences are given here. Not given: the amount of reagent, the time to read-out.

Purpose: 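Genes whose loss lifts activity of an E2F-responsive reporter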 (primary screen)
System: Drosophila S2 cells
Reagent: long dsRNA against Drosophila genes
Read-out: 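Firefly luciferase driven by E2F sites, normalised to Renilla luciferase on the same minimal promoter, measured by plate reader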
Scale: E2F firefly: higher = more E2F reporter activity; Renilla normaliser: higher = more normaliser reporter signal
Call rule: 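Called active if the normalised E2F reporter went up by over 50%; the cutoff is arbitrary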

predicted target | dsRNA no. | E2F firefly, rep 1 | Renilla normaliser, rep 1 | Outcome
CG12521 | 1 | 1.23e5 | 6975 | inactive
Trs31 | 1 | 163 | 38 | inactive
Cyp4e3 | 1 | 1.31e5 | 4912 | inactive
Nplp1 | 1 | 78196 | 3089 | inactive
RapGAP1 | 1 | 1.51e5 | 4948 | inactive
RapGAP1 | 2 | 1.62e5 | 5843 | inactive
RapGAP1 | 3 | 79999 | 3529 | inactive
CG10175 | 1 | 82356 | 2473 | inactive
CG10175 | 2 | 1.07e5 | 6003 | inactive
CG33143 | 1 | 1.01e5 | 4465 | inactive
CG33143 | 2 | 1.22e5 | 4521 | inactive
CG11630 | 1 | 98413 | 3834 | inactive
Rac1 | 1 | 1.07e5 | 4378 | inactive
CG33159 | 1 | 61194 | 3171 | inactive
CG45002 | 1 | 2.48e5 | 7242 | inactive
CG32107 | 1 | 1.30e5 | 3986 | inactive
Pgcl | 1 | 38636 | 3795 | inactive
Sf3a1 | 1 | 49918 | 3438 | inactive
CG17129 | 1 | 84309 | 3128 | inactive
CG10749 | 1 | 1.38e5 | 7070 | inactive
CG4455 | 1 | 72441 | 3439 | inactive
mys | 1 | 61104 | 4495 | inactive

Continued, starting with the last 4 of the part before.
predicted target | dsRNA no. | E2F firefly, rep 1 | Renilla normaliser, rep 1 | Outcome
CG17129 | 1 | 84309 | 3128 | inactive
CG10749 | 1 | 1.38e5 | 7070 | inactive
CG4455 | 1 | 72441 | 3439 | inactive
mys | 1 | 61104 | 4495 | inactive
Sdc | 1 | 97074 | 4484 | inactive
CaMKI | 1 | 1883 | 896 | inactive
qsm | 1 | 1.51e5 | 7081 | inactive
qsm | 2 | 94129 | 3975 | inactive
L (retired record) | 1 | 94495 | 4391 | inactive
L (retired record) | 2 | 77076 | 4226 | inactive
CG1513 | 1 | 1.31e5 | 4960 | inactive
CG1513 | 2 | 56261 | 3595 | inactive
CG1513 | 3 | 1.50e5 | 4919 | inactive
CG11474 | 1 | 88898 | 4035 | inactive
Rcd6 | 1 | 67165 | 3052 | inactive
CG31954 | 1 | 90378 | 3285 | inactive
